The record followed here is US20100151566A1.

The chains behind the UniProt entries cited, without tags or fusion partners. Where a name states a change or a piece, a line headed by the entry shows the natural chain unless it says otherwise. A line that says so, or that is headed by a name, gives the form on record, which may keep a tag or linker.
human VEGF (Peprotech), isoform not stated (P15692, form named): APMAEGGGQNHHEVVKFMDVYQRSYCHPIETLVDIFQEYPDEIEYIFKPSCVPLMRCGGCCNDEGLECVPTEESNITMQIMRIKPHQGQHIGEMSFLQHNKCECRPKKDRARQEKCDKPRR

Results are given in words; binding and its absence hold for the method and conditions named. Some binding calls cover weakened binding; strength is not graded here.

The target in the assay is human VEGF (Peprotech), isoform not stated (human) (UniProt P15692). The assay can be described thus: ELISA with metabolized medium of P. pastoris; positive = at least 4 times the negative controls. (An ELISA detects its analyte on a solid surface through an enzyme-linked reagent.)

B1: scFv 2H1-Pp17 (scFv)
scFv: QQVQLVQSGAEVKKPGESLKISCKGSGYSFTSYWIGWVRQMPGKGLEWMGIIYPGDSDTRYSPSFQGQVTISADKSISTAYLQWSSLKASDTAMYYCARLVVRDTEIWGQGTMVTVSSAPQAKSSGSGSESKVDQAVVTQEPSLTVSPGGTVTLTCASSIGAVTSGNYPNWFQQRPGQPPRALIYSTSNKHSWTPARFSGSLLGGKAALTLSGAQPEDEAEYYCLLSYSGARPVFGGGTKLTVLGAAAGSEQKLISEEDLNSHHHHHH
Turning to B1, the binding entry is “binds”.
